# Test results taken from the supplement of paper PMC8728848.
# The other results are listed elsewhere or left out.
# B1: PX9961M-bvu-482-23-482 (Bacteroides vulgatus) (protein)
# chain: WLDLAPSTQVDTETSINVLSDIEFTLNGIYSTMQSSDAYSGRLVYYGDVTGDDMQAVSSTKRTGNYYRFNFTKDNGPSSHWSYLYSIIQNCNLILMNVDKLSIDEDETEYKNDLKGQALAIRGMALFDLTRIFGYPYLKDNGASLGVPIVKELSTIDSKPARNTVAECYTEIISDLKNSTELLSGDFNKGKVNRWAAMTLLSRVYLYKGEYNEALTMAENAIKGAEKEGYALWTNEEYPTAWGNDASASNPGEILFEIVNLTTDSPGKESMGYLNSYNGYDDMCITCSFYQLLKKDPKDVRLKILSFDKKYYAYVNKYQPQQGENITDANIPLIRLSEAYLNAAEAAVQTGDNAKAVKYLNSIVQRANPENSVEGKTLTLENVLDERRKELVAEGHRMYDVIRNGMTVKRIDVKDSDINKTKHNTAYMEYDWNFHKILLPIPKKEMDANPNMKQNPGYVD
# Legend:
# Assay in all cases: glycan array binding signal (z-score within array); higher = stronger binding
# Settings in all cases: glycan notation: IUPAC condensed, linker removed
# [1] = target: Gal(a1-3)[Gal(a1-4)]Gal(b1-4)GlcNAc
# Procedure, shortened: (§1)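 Glycan array data came from 3228 arrays in the Consortium for Functional Glycomics database, and only arrays with an available protein sequence were kept. Glycan names were put into IUPAC-condensed notation, and columns mapping to the same glycan were averaged. The binding signal is a within-array Z-score, averaged across arrays of one protein sequence run at different concentrations or buffers and across linkers. A negative Z-score can be read as non-binding.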
# [2] = target: Gal(a1-4)Gal(b1-3)GlcNAc(b1-2)Man(a1-3)[Gal(a1-4)Gal(b1-3)GlcNAc(b1-2)Man(a1-6)]Man(b1-4)GlcNAc(b1-4)GlcNAc
# Procedure, shortened: as §1
# [3] = target: Gal(a1-4)Gal(b1-4)Glc
# Procedure, shortened: as §1
# [4] = target: Gal(a1-4)Gal(b1-4)GlcNAc
# Procedure, shortened: as §1
# [5] = target: Gal(a1-4)Gal(b1-4)GlcNAc(b1-2)Man(a1-3)[Gal(a1-4)Gal(b1-4)GlcNAc(b1-2)Man(a1-6)]Man(b1-4)GlcNAc(b1-4)GlcNAc
# Procedure, shortened: as §1
# [6] = target: Gal(a1-4)Gal(b1-4)GlcNAc(b1-3)Gal(b1-4)Glc
# Procedure, shortened: as §1
# [7] = target: Gal(a1-4)GlcNAc
# Procedure, shortened: as §1
# [8] = target: Gal(a1-6)Glc
# Procedure, shortened: as §1
# [9] = target: Gal(b1-2)Gal
# Procedure, shortened: as §1
# [10] = target: Gal(b1-3)Gal
# Procedure, shortened: as §1
# [11] = target: Gal(b1-3)Gal(b1-4)GlcNAc
# Procedure, shortened: as §1
# [12] = target: Gal(b1-3)GalNAc
# Procedure, shortened: as §1
# [13] = target: Gal(b1-3)GalNAc(a1-3)[Fuc(a1-2)]Gal(b1-4)Glc
# Procedure, shortened: as §1
# [14] = target: Gal(b1-3)GalNAc(a1-3)[Fuc(a1-2)]Gal(b1-4)GlcNAc
# Procedure, shortened: as §1
# [15] = target: Gal(b1-3)GalNAc(b1-3)Gal
# Procedure, shortened: as §1
# [16] = target: Gal(b1-3)GalNAc(b1-3)Gal(a1-4)Gal(b1-4)Glc
# Procedure, shortened: as §1
# [17] = target: Gal(b1-3)GalNAc(b1-4)Gal(b1-4)Glc
# Procedure, shortened: as §1
# [18] = target: Gal(b1-3)GalNAc(b1-4)[Neu5Ac(a2-3)]Gal(b1-4)Glc
# Procedure, shortened: as §1
# [19] = target: Gal(b1-3)GlcNAc
# Procedure, shortened: as §1
# [20] = target: Gal(b1-3)GlcNAc(a1-3)Gal(b1-4)GlcNAc
# Procedure, shortened: as §1
# [21] = target: Gal(b1-3)GlcNAc(a1-6)Gal(b1-4)GlcNAc
# Procedure, shortened: as §1
# [22] = target: Gal(b1-3)GlcNAc(b1-2)Man
# Procedure, shortened: as §1
# [23] = target: Gal(b1-3)GlcNAc(b1-2)Man(a1-3)[Gal(b1-3)GlcNAc(b1-2)Man(a1-6)]Man(b1-4)GlcNAc(b1-4)GlcNAc
# Procedure, shortened: as §1
# [24] = target: Gal(b1-3)GlcNAc(b1-2)Man(a1-3)[Gal(b1-3)GlcNAc(b1-2)Man(a1-6)]Man(b1-4)GlcNAc(b1-4)[Fuc(a1-6)]GlcNAc
# Procedure, shortened: as §1
# [25] = target: Gal(b1-3)GlcNAc(b1-2)Man(a1-3)[GlcNAc(b1-4)][Gal(b1-3)GlcNAc(b1-2)Man(a1-6)]Man(b1-4)GlcNAc(b1-4)GlcNAc
# Procedure, shortened: as §1
# [26] = target: Gal(b1-3)GlcNAc(b1-2)[Gal(b1-3)GlcNAc(b1-6)]Man(a1-6)[Gal(b1-3)GlcNAc(b1-2)Man(a1-3)]Man(b1-4)GlcNAc(b1-4)GlcNAc
# Procedure, shortened: as §1
# [27] = target: Gal(b1-3)GlcNAc(b1-3)Gal(b1-3)GlcNAc
# Procedure, shortened: as §1
# [28] = target: Gal(b1-3)GlcNAc(b1-3)Gal(b1-4)Glc
# Procedure, shortened: as §1
# [29] = target: Gal(b1-3)GlcNAc(b1-3)Gal(b1-4)GlcNAc
# Procedure, shortened: as §1
# [30] = target: Gal(b1-3)GlcNAc(b1-3)Gal(b1-4)GlcNAc(b1-2)Man(a1-3)[Gal(b1-3)GlcNAc(b1-3)Gal(b1-4)GlcNAc(b1-2)Man(a1-6)]Man(b1-4)GlcNAc(b1-4)GlcNAc
# Procedure, shortened: as §1
# [31] = target: Gal(b1-3)GlcNAc(b1-3)Gal(b1-4)GlcNAc(b1-2)[Gal(b1-3)GlcNAc(b1-3)Gal(b1-4)GlcNAc(b1-6)]Man(a1-6)[Gal(b1-3)GlcNAc(b1-3)Gal(b1-4)GlcNAc(b1-2)Man(a1-3)]Man(b1-4)GlcNAc(b1-4)[Fuc(a1-6)]GlcNAc
# Procedure, shortened: as §1
# [32] = target: Gal(b1-3)GlcNAc(b1-3)Gal(b1-4)GlcNAc(b1-3)Gal(b1-4)GlcNAc(b1-2)[Gal(b1-3)GlcNAc(b1-3)Gal(b1-4)GlcNAc(b1-3)Gal(b1-4)GlcNAc(b1-6)]Man(a1-6)[Gal(b1-3)GlcNAc(b1-3)Gal(b1-4)GlcNAc(b1-3)Gal(b1-4)GlcNAc(b1-2)Man(a1-3)]Man(b1-4)GlcNAc(b1-4)[Fuc(a1-6)]GlcNAc
# Procedure, shortened: as §1
# [33] = target: Gal(b1-3)GlcNAc(b1-3)Gal(b1-4)GlcNAc(b1-6)[Gal(b1-3)GlcNAc(b1-3)]Gal(b1-4)Glc
# Procedure, shortened: as §1
# [34] = target: Gal(b1-3)GlcNAc(b1-3)Gal(b1-4)[Fuc(a1-3)]GlcNAc
# Procedure, shortened: as §1
# [35] = target: Gal(b1-3)GlcNAc(b1-3)Gal(b1-4)[Fuc(a1-3)]GlcNAc(b1-6)[Gal(b1-3)GlcNAc(b1-3)]Gal(b1-4)Glc
# Procedure, shortened: as §1
# [36] = target: Gal(b1-3)GlcNAc(b1-3)GalNAc
# Procedure, shortened: as §1
# [37] = target: Gal(b1-3)GlcNAc(b1-6)Gal(b1-4)GlcNAc
# Procedure, shortened: as §1
# [38] = target: Gal(b1-3)GlcNAc(b1-6)GalNAc
# Procedure, shortened: as §1
binder,measurement,setting,value
B1,glycan array binding signal (z-score),[1],4.04
same,glycan array binding signal (z-score),[2],1.92
same,glycan array binding signal (z-score),[3],0.06
same,glycan array binding signal (z-score),[4],0.359
same,glycan array binding signal (z-score),[5],0.779
same,glycan array binding signal (z-score),[6],0.792
same,glycan array binding signal (z-score),[7],-0.763
same,glycan array binding signal (z-score),[8],-0.463
same,glycan array binding signal (z-score),[9],-0.222
same,glycan array binding signal (z-score),[10],-0.752
same,glycan array binding signal (z-score),[11],0.465
same,glycan array binding signal (z-score),[12],-0.079
same,glycan array binding signal (z-score),[13],-0.056
same,glycan array binding signal (z-score),[14],-0.159
same,glycan array binding signal (z-score),[15],0.02
same,glycan array binding signal (z-score),[16],0.164
same,glycan array binding signal (z-score),[17],0.105
same,glycan array binding signal (z-score),[18],-0.739
same,glycan array binding signal (z-score),[19],-0.648
same,glycan array binding signal (z-score),[20],0.146
same,glycan array binding signal (z-score),[21],-1.01
same,glycan array binding signal (z-score),[22],-0.302
same,glycan array binding signal (z-score),[23],1.18
same,glycan array binding signal (z-score),[24],-0.075
same,glycan array binding signal (z-score),[25],-0.064
same,glycan array binding signal (z-score),[26],-0.579
same,glycan array binding signal (z-score),[27],-1.04
same,glycan array binding signal (z-score),[28],-0.532
same,glycan array binding signal (z-score),[29],-0.294
same,glycan array binding signal (z-score),[30],0.191
same,glycan array binding signal (z-score),[31],0.461
same,glycan array binding signal (z-score),[32],1.05
same,glycan array binding signal (z-score),[33],-0.033
same,glycan array binding signal (z-score),[34],-0.31
same,glycan array binding signal (z-score),[35],-0.118
same,glycan array binding signal (z-score),[36],-1.23
same,glycan array binding signal (z-score),[37],-0.801
same,glycan array binding signal (z-score),[38],-0.222

# Not a retest: an excerpt of the list.
binder,measurement,setting,value
B1,glycan array binding signal (z-score),[14],-0.159
same,glycan array binding signal (z-score),[15],0.02
same,glycan array binding signal (z-score),[16],0.164
